PMC12829148
Results are given in words; binding and its absence hold for the method and conditions named. For part of these data: Binding seen in cells or lysates may run through a third protein. Some binding calls cover weakened binding; strength is not graded here.

Protein sequences, listed by entry. Tags and fused reporters are not part of them. Lines headed by an entry give the natural chain unless they say otherwise; changes in a name come on top. Residues count along the entry.
UniProt P35579: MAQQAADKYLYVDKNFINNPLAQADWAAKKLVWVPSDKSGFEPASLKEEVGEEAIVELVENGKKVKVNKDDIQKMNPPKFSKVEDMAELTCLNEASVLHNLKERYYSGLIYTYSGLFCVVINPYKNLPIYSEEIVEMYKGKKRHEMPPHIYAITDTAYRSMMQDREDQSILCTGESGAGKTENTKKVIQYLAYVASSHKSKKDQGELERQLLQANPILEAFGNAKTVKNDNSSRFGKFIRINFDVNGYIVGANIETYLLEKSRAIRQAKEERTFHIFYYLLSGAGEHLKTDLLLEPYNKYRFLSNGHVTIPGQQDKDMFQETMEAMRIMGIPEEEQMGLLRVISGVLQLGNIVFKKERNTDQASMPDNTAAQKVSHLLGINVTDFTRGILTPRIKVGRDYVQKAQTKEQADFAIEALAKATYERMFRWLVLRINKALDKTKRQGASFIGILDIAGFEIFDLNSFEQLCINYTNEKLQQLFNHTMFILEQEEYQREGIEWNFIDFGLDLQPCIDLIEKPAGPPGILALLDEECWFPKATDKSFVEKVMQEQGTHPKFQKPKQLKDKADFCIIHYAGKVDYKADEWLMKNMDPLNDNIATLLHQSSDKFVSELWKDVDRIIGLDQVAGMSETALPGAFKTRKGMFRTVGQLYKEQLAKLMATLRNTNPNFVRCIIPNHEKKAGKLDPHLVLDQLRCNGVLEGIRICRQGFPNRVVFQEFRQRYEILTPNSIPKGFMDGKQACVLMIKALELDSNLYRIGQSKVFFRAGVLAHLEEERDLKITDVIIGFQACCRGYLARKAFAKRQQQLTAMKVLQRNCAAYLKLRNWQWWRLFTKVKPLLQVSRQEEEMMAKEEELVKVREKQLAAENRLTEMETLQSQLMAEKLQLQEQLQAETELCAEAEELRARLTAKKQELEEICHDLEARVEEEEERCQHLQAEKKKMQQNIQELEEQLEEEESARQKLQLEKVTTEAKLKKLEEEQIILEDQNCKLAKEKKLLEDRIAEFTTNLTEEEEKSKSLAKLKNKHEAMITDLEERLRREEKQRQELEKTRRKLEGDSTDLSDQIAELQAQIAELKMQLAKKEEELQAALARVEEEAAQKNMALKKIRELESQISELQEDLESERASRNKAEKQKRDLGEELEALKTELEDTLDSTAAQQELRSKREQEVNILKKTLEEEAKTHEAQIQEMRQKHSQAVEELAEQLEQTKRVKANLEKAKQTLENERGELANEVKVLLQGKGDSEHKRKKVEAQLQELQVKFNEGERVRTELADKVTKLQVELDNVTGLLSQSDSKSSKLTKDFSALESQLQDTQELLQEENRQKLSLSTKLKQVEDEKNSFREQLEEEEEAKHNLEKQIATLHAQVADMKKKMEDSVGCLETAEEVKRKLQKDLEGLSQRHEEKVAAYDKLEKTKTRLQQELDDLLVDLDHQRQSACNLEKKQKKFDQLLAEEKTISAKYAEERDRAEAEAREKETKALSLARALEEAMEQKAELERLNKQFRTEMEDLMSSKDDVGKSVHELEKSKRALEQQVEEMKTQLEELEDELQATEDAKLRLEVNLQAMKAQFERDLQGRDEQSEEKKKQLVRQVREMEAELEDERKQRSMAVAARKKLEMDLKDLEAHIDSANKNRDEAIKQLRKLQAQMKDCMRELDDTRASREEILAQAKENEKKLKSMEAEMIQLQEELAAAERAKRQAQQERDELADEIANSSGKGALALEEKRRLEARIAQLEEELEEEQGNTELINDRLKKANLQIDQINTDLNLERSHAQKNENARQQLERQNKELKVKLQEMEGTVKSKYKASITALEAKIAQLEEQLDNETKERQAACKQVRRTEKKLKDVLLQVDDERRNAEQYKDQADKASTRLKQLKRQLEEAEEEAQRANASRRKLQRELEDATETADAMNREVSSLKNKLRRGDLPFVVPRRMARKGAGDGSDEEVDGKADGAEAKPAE
UniProt O43707: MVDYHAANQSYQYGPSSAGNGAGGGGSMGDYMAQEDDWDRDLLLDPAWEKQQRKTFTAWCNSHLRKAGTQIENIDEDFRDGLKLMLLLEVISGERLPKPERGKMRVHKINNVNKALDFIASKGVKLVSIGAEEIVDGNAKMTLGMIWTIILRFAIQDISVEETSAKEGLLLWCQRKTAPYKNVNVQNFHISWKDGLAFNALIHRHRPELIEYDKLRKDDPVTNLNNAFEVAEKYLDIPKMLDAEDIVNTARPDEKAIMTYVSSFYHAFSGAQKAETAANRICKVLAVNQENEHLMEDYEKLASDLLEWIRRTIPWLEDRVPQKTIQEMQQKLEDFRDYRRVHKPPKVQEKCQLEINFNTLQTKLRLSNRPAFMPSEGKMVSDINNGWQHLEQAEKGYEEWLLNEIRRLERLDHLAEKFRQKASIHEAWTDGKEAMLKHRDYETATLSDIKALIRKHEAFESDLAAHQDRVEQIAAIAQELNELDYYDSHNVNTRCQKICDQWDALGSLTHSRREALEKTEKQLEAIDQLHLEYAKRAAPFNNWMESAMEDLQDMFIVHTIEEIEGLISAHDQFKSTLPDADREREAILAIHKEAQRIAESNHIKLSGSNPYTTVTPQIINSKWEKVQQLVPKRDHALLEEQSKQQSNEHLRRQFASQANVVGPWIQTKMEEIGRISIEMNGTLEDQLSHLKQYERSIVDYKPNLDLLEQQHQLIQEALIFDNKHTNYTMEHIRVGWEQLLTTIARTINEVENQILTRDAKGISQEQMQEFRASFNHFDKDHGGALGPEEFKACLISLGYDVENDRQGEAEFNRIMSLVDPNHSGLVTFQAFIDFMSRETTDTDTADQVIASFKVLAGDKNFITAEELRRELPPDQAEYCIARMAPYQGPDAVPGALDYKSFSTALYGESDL
UniProt P05556: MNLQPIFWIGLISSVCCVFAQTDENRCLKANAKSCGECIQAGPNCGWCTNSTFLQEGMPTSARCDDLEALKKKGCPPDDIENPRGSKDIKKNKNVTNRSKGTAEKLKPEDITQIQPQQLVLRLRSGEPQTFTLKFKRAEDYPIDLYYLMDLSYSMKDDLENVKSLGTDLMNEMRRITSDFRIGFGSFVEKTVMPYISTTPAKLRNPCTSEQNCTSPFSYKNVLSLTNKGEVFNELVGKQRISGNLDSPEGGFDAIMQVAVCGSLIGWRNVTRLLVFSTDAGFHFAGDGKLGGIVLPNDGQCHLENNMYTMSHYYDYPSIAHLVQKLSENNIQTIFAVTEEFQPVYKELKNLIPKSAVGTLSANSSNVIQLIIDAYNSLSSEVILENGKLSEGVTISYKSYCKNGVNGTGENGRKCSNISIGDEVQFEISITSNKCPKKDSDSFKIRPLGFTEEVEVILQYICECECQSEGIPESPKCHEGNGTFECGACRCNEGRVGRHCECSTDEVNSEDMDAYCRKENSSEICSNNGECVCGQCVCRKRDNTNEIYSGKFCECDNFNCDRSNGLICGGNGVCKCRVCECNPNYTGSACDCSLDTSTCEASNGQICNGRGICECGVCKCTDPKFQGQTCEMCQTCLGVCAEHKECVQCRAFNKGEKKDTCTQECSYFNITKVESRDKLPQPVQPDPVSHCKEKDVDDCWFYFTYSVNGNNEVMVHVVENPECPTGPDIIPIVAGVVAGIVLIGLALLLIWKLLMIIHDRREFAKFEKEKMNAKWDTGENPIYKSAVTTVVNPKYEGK
UniProt Q9UM54: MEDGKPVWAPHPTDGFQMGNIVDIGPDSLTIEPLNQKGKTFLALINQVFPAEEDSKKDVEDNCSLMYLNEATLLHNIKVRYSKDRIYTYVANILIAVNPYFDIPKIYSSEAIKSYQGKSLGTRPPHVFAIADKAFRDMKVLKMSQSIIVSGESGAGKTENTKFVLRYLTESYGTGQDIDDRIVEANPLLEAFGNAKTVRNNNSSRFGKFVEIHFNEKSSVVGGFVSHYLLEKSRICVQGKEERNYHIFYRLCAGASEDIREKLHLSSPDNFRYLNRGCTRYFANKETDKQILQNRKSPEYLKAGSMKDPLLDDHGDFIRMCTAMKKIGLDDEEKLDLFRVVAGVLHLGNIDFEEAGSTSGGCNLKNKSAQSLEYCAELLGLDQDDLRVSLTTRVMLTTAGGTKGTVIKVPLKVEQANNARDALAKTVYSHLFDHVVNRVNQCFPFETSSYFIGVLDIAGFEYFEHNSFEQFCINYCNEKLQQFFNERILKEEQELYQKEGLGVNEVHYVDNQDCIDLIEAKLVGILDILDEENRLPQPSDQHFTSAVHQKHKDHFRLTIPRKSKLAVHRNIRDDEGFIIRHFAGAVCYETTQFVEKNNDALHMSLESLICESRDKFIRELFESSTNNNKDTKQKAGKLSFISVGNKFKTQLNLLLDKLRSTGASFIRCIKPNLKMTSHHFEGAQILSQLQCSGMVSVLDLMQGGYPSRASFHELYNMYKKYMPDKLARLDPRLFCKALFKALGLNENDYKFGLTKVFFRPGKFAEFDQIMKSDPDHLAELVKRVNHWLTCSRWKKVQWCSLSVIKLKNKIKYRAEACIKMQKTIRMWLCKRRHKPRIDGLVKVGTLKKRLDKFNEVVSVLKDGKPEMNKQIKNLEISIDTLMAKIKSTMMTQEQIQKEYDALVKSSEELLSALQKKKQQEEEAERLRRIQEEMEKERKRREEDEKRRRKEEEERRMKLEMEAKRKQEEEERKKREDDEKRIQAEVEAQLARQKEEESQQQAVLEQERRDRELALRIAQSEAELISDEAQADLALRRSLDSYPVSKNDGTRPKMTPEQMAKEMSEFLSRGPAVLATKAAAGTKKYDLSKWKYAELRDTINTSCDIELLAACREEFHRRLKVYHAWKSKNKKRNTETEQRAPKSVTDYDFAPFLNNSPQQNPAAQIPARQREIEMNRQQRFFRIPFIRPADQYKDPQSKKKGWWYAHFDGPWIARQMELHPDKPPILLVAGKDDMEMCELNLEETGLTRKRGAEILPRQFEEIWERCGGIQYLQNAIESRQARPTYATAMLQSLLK
UniProt Q9NR12: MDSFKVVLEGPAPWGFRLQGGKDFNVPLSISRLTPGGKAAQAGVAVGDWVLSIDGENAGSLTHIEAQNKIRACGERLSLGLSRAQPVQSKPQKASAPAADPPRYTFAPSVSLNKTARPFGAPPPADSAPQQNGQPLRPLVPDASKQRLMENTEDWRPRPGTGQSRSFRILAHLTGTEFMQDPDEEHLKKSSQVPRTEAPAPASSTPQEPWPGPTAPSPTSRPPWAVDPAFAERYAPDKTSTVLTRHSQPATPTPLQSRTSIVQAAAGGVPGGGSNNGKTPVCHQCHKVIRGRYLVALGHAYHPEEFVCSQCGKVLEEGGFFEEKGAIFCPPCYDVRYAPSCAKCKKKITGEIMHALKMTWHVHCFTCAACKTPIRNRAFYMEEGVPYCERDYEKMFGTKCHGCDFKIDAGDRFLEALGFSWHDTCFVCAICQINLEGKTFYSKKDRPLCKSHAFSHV
UniProt O43493, residues 22-437: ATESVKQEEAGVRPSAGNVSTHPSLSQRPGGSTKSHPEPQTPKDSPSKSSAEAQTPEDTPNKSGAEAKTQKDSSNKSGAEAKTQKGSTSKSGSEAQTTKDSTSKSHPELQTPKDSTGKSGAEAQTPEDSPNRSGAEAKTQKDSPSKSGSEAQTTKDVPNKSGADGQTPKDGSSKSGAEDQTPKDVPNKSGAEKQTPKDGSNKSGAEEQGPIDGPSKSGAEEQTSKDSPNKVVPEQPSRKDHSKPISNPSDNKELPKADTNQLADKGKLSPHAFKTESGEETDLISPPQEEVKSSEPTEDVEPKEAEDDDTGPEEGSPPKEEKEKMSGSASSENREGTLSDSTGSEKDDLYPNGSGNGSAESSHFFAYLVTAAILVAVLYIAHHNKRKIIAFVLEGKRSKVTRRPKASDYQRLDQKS
UniProt P67936: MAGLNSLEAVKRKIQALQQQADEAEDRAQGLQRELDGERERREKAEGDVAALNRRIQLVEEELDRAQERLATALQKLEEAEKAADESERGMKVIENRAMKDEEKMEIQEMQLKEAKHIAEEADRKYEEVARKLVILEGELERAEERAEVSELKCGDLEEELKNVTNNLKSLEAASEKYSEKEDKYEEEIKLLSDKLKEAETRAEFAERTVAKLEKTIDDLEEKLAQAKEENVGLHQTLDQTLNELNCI
UniProt Q12792: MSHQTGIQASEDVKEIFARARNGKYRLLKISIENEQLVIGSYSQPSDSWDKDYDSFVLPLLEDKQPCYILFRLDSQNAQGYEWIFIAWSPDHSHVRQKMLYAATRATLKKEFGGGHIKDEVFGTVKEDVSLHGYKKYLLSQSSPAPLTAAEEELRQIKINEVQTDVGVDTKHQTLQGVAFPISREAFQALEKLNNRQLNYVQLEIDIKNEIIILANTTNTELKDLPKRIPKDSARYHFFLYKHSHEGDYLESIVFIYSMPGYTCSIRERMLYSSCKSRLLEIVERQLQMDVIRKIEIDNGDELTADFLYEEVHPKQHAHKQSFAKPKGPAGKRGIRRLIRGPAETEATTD

What was measured:
[1] = target: MYH9 (human (endogenous in A375)) (UniProt P35579); experiment: ion-based proteome-integrated solubility alteration (I-PISA), scored with Tapioca; A375 cells with five ZnCl2 concentrations 0-550 uM, insoluble fraction (pellet), TMT-DDA MS; pair called detected when the Tapioca score passed the cutoff 0.7; known PPIs only
[2] = target: ACTN1 (human (endogenous in A375 and A549)) (UniProt P12814); experiment: thermal proximity coaggregation (TPCA), scored with Tapioca
[3] = target: ACTN1 (human (endogenous in A375 and A549)) (UniProt P12814); experiment: ion-based proteome-integrated solubility alteration (I-PISA), scored with Tapioca; A375 cells with five ZnCl2 concentrations 0-550 uM, insoluble fraction (pellet), TMT-DDA MS; pair called detected when the Tapioca score passed the cutoff 0.7; known PPIs only
[4] = target: ACTN1 (human (endogenous in A375 and A549)) (UniProt P12814); experiment: thermal proximity coaggregation (TPCA), scored with Tapioca; A375 cells heated at 10 temperatures 37-55 °C, soluble fraction, TMT-DDA MS; pair called detected when the Tapioca machine-learning score passed the cutoff 0.5; known PPIs only
[5] = target: viral nucleoprotein (NP) (Influenza A H1N1 A/Puerto Rico/8/1934) (UniProt P03466); experiment: thermal proximity coaggregation (TPCA), scored with Tapioca
[6] = target: MYH9 (human (endogenous in A375)) (UniProt P35579); experiment: thermal proximity coaggregation (TPCA), scored with Tapioca; A375 cells heated at 10 temperatures 37-55 °C, soluble fraction, TMT-DDA MS; pair called detected when the Tapioca machine-learning score passed the cutoff 0.5; known PPIs only
[7] = target: MYH9 (human (endogenous in A375)) (UniProt P35579); experiment: thermal proximity coaggregation (TPCA), scored with Tapioca; A375 cells heated at 10 temperatures 37-55 °C, insoluble fraction (pellet), TMT-DDA MS; pair called detected when the Tapioca score passed the data-set cutoff; known PPIs only
[8] = target: ACTN1 (human (endogenous in A375 and A549)) (UniProt P12814); experiment: ion-based proteome-integrated solubility alteration (I-PISA), scored with Tapioca; A375 cells with a ZnCl2 gradient between 0 and 800 uM (five or ten concentrations; which data set is not told for these pairs), soluble fraction, TMT-DDA MS; pair called detected when the Tapioca score passed the data-set cutoff; known PPIs only
[9] = target: T1, TMED7 (human (endogenous in A549)) (UniProt Q9Y3B3); experiment: thermal proximity coaggregation (TPCA), scored with Tapioca
T1 sequence: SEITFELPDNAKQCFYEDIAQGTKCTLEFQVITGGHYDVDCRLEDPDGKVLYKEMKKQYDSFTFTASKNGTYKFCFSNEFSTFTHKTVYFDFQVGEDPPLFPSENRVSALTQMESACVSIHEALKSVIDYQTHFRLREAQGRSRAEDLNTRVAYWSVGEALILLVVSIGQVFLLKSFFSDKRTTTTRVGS

[10] = target: viral M1 protein (Influenza A H1N1 A/Puerto Rico/8/1934) (UniProt P03485); experiment: as above

For ACTN1 (from UniProt P12814 1-892), the binding [1] was “binds”.

ACTN4 (from UniProt O43707 1-911) was tested, and the binding [2] was “binds” and the binding [3] was “binds”.

For CTTN (from UniProt Q14247 1-550), the binding [2] was “binds”.

For IQGAP1 (from UniProt P46940 1-1657), the binding [3] was “binds”.

ITGB1 (from UniProt P05556 21-798) was tested, and the binding [4] was “binds”.

LGALS9 (from UniProt O00182 1-355) was tested, and the binding [5] was “binds”.

For MYH14 (from UniProt Q7Z406 1-1995), the binding [6] was “binds”.

With MYO6 (from UniProt Q9UM54 1-1294) the binding [7] was “binds”.

With PDLIM7 (from UniProt Q9NR12 1-457) the binding [8] was “binds”.

With SVIL (from UniProt O95425 1-2214) the binding [8] was “binds”.

In the case of TGOLN2 (from UniProt O43493 22-437), the binding [2] is reported as “binds”.

In the case of TPM4 (from UniProt P67936 1-248), the binding [4] is reported as “binds”.

In the case of TWF1 (from UniProt Q12792 1-350), the binding [9] is reported as “binds”.

B1: ZYX (protein, UniProt Q15942 1-572)
chain: MAAPRPSPAISVSVSAPAFYAPQKKFGPVVAPKPKVNPFRPGDSEPPPAPGAQRAQMGRVGEIPPPPPEDFPLPPPPLAGDGDDAEGALGGAFPPPPPPIEESFPPAPLEEEIFPSPPPPPEEEGGPEAPIPPPPQPREKVSSIDLEIDSLSSLLDDMTKNDPFKARVSSGYVPPPVATPFSSKSSTKPAAGGTAPLPPWKSPSSSQPLPQVPAPAQSQTQFHVQPQPQPKPQVQLHVQSQTQPVSLANTQPRGPPASSPAPAPKFSPVTPKFTPVASKFSPGAPGGSGSQPNQKLGHPEALSAGTGSPQPPSFTYAQQREKPRVQEKQHPVPPPAQNQNQVRSPGAPGPLTLKEVEELEQLTQQLMQDMEHPQRQNVAVNELCGRCHQPLARAQPAVRALGQLFHIACFTCHQCAQQLQGQQFYSLEGAPYCEGCYTDTLEKCNTCGEPITDRMLRATGKAYHPHCFTCVVCARPLEGTSFIVDQANRPHCVPDYHKQYAPRCSVCSEPIMPEPGRDETVRVVALDKNFHMKCYKCEDCGKPLSIEADDNGCFPLDGHVLCRKCHTARAQT
For B1, the binding [2] was “binds” and the binding [8] was “binds”.

B2: LASP1 (protein, UniProt Q14847 1-261)
chain: MNPNCARCGKIVYPTEKVNCLDKFWHKACFHCETCKMTLNMKNYKGYEKKPYCNAHYPKQSFTMVADTPENLRLKQQSELQSQVRYKEEFEKNKGKGFSVVADTPELQRIKKTQDQISNIKYHEEFEKSRMGPSGGEGMEPERRDSQDGSSYRRPLEQQQPHHIPTSAPVYQQPQQQPVAQSYGGYKEPAAPVSIQRSAPGGGGKRYRAVYDYSAADEDEVSFQDGDTIVNVQQIDDGWMYGTVERTGDTGMLPANYVEAI
B2 was tested, and the binding [2] was “binds”.

B3: STAU2 (protein, UniProt Q9NUL3 1-570)
chain: MANPKEKTAMCLVNELARFNRVQPQYKLLNERGPAHSKMFSVQLSLGEQTWESEGSSIKKAQQAVANKALTESTLPKPVQKPPKSNVNNNPGSITPTVELNGLAMKRGEPAIYRPLDPKPFPNYRANYNFRGMYNQRYHCPVPKIFYVQLTVGNNEFFGEGKTRQAARHNAAMKALQALQNEPIPERSPQNGESGKDVDDDKDANKSEISLVFEIALKRNMPVSFEVIKESGPPHMKSFVTRVSVGEFSAEGEGNSKKLSKKRAATTVLQELKKLPPLPVVEKPKLFFKKRPKTIVKAGPEYGQGMNPISRLAQIQQAKKEKEPDYVLLSERGMPRRREFVMQVKVGNEVATGTGPNKKIAKKNAAEAMLLQLGYKASTNLQDQLEKTGENKGWSGPKPGFPEPTNNTPKGILHLSPDVYQEMEASRHKVISGTTLGYLSPKDMNQPSSSFFSISPTSNSSATIARELLMNGTSSTAEAIGLKGSSPTPPCSPVQPSKQLEYLARIQGFQAALSALKQFSEQGLDPIDGAMNIEKGSLEKQAKHLREKADNNQAPPGSIAQDCKKSNSAV
In the case of B3, the binding [10] is reported as “binds”.
